PubChem BioAssay AID1671195 | Yale University, 2021
Screen: 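Regulators of LDL receptor activity judged by labelled LDL uptake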 (primary screen). Cells: human Huh7 hepatoma cells. Knock-down reagent: siRNA pool against human genes, 18 nM. Duration: about 2 to 2.5 days of knockdown, then 8 h LDL uptake. Challenge: DiI-labelled LDL at 30 µg/ml for 8 h, in lipoprotein-deficient serum medium. Measurement: 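Per-cell DiI-LDL intensity by automated imaging; well means scaled to the plate median and given as a robust z-score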. Direction: robust z-score: higher = more LDL uptake after knockdown. Rule for the call: 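Active when two or more replicates show a robust z-score above 2 or below -2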.
Here is one part, drawn at random, of about 22,000 reagents tested. About 1,510 of them (6.9%) were called active. 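Active includes knockdowns raising or lowering LDL uptake; positive z-scores mean more uptake, negative mean less.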

Against PRSS35, the values are robust z-score, replicate 1 = -0.109; robust z-score, replicate 2 = -0.309; robust z-score, replicate 3 = 0.193; inactive.
Silencing of FRA10AC1 came out at: robust z-score, replicate 1 = -0.8; robust z-score, replicate 2 = -0.862; robust z-score, replicate 3 = -1.31; inactive.
For DENND4A, the values are robust z-score, replicate 1 = -1.97; robust z-score, replicate 2 = -1.29; robust z-score, replicate 3 = 0.938; inactive.
For LILRB5, the values are robust z-score, replicate 1 = 2.22; robust z-score, replicate 2 = 0.31; robust z-score, replicate 3 = 1.39; inactive.
For VPS50, the values are robust z-score, replicate 1 = 3.9; robust z-score, replicate 2 = 1.77; robust z-score, replicate 3 = 2.83; active.
After knock-down of H2BC12, the record shows robust z-score, replicate 1 = 1.96; robust z-score, replicate 2 = 1.58; robust z-score, replicate 3 = 1.63; inactive.

Called active, of those listed so far:
VPS50 | robust z-score, replicate 1 = 3.9; robust z-score, replicate 2 = 1.77; robust z-score, replicate 3 = 2.83; outcome = active

Continued:
Depletion of WDHD1 resulted in: robust z-score, replicate 1 = 0.0154; robust z-score, replicate 2 = -0.443; robust z-score, replicate 3 = -0.841; inactive.
PECAM1 showed robust z-score, replicate 1 = 0.00424; robust z-score, replicate 2 = -1.03; robust z-score, replicate 3 = -0.432; inactive.
With knock-down of PTX4 the results were robust z-score, replicate 1 = -1.08; robust z-score, replicate 2 = -1.38; robust z-score, replicate 3 = -1.34; inactive.
After knock-down of TGM5 the results were robust z-score, replicate 1 = 0.816; robust z-score, replicate 2 = 0.398; robust z-score, replicate 3 = 0.741; inactive.
Knock-down of COL17A1 came out at: robust z-score, replicate 1 = -0.278; robust z-score, replicate 2 = 0.169; robust z-score, replicate 3 = -0.411; inactive.
Against CYP4F2, the values are robust z-score, replicate 1 = -0.378; robust z-score, replicate 2 = 0.262; robust z-score, replicate 3 = 0.112; inactive.
